Experimental data: the supplement of paper PMC10849652
This is one part of the list. Residues, ends and D or L forms follow the SMILES beside them. *: point of attachment. Cbz = O=C(OCc1ccccc1)*

Amino acid sequences for entries named in this document (tags omitted). A change or cut given only in a name is not applied to a line headed by its entry.
UniProt Q9NPQ8: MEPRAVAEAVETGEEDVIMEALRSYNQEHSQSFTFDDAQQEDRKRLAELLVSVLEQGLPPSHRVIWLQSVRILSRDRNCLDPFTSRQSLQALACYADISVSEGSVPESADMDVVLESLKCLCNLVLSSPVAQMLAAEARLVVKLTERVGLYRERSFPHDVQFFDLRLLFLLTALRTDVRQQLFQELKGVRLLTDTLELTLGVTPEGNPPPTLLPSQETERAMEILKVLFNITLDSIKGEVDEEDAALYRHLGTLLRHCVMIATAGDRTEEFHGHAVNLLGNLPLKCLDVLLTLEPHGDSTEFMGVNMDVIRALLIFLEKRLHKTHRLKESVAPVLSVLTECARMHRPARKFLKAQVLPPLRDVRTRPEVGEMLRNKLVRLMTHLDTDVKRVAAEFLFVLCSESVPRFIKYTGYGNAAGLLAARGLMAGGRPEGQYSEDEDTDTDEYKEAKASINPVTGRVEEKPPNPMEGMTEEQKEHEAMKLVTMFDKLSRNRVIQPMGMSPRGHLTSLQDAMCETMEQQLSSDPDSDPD
UniProt Q8IXI2: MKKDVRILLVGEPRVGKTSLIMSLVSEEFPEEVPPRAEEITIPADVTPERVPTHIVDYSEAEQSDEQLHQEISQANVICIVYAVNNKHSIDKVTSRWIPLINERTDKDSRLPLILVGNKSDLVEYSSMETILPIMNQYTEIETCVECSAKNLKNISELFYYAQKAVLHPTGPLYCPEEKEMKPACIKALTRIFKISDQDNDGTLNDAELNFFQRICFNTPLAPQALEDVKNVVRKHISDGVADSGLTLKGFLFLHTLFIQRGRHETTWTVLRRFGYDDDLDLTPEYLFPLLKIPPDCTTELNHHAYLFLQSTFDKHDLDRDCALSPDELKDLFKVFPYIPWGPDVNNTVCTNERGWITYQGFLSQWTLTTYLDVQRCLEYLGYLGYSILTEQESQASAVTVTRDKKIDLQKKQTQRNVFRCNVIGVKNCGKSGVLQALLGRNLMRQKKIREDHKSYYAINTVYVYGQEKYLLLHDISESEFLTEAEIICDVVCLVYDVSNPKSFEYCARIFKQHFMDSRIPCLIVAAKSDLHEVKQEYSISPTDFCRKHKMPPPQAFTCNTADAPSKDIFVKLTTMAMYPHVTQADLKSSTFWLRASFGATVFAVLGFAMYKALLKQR
UniProt Q15293: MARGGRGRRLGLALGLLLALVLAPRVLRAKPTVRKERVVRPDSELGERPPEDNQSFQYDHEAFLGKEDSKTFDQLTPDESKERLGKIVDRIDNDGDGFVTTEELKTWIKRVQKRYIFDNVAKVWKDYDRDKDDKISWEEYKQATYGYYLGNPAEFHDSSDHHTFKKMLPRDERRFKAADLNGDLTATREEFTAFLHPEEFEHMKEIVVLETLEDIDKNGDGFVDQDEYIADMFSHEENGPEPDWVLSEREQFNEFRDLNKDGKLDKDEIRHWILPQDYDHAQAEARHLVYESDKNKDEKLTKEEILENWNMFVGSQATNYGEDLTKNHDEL
UniProt Q9HBH5: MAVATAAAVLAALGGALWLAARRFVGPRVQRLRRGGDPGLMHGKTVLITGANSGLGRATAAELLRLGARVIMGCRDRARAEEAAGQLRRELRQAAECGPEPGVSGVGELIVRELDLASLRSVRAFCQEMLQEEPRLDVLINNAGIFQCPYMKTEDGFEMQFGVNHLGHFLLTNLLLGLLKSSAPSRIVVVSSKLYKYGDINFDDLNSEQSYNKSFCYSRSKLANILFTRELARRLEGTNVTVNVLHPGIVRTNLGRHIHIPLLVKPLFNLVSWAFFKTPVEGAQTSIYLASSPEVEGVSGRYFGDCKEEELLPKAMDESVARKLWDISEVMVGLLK
UniProt Q5TBB1: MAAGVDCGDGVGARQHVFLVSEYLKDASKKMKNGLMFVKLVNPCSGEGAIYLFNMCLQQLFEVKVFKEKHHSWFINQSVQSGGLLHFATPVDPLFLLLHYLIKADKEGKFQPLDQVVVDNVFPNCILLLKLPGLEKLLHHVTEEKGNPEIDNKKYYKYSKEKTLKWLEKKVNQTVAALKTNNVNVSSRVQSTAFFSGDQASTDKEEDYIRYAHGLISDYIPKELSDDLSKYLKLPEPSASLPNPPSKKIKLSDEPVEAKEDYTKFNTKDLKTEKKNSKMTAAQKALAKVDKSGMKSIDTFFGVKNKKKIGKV
UniProt P35249, whole entry, looked up: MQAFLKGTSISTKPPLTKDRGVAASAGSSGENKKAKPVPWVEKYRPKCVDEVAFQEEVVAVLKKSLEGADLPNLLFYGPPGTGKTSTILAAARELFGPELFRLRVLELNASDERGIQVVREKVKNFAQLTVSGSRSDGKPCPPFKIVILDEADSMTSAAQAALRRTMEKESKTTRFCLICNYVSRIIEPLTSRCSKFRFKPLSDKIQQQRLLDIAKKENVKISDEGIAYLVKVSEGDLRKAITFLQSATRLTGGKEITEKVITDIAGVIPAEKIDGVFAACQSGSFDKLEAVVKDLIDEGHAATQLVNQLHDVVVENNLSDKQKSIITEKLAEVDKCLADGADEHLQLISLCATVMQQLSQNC
UniProt P46063: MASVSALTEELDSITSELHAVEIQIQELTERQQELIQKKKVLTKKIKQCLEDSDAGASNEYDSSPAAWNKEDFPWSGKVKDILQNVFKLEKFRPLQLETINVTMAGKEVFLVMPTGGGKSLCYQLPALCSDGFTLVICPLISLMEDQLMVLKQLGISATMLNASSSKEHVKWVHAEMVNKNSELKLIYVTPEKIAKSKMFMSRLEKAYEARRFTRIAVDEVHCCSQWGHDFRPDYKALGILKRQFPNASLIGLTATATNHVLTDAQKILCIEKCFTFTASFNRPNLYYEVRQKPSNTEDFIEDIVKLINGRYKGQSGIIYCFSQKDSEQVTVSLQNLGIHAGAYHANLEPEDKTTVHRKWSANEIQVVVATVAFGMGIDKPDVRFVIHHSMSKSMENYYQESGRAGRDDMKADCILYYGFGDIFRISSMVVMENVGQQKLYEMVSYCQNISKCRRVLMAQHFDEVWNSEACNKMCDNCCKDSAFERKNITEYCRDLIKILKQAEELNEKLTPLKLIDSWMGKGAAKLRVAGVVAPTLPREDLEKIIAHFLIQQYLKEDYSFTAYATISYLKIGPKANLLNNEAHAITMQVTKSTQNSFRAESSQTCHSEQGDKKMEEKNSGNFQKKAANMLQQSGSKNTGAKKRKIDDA
UniProt Q5TA31: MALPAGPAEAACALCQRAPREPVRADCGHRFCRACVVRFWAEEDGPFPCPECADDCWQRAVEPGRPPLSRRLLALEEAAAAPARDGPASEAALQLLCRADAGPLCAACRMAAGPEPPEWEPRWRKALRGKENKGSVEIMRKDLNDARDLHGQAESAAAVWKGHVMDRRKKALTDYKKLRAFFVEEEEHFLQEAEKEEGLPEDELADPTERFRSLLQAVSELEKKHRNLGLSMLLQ
UniProt Q969G6: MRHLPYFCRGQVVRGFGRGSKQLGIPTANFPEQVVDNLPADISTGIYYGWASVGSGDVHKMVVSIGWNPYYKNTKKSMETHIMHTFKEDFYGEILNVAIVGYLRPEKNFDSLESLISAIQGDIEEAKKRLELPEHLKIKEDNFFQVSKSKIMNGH
UniProt P35241, whole entry, looked up: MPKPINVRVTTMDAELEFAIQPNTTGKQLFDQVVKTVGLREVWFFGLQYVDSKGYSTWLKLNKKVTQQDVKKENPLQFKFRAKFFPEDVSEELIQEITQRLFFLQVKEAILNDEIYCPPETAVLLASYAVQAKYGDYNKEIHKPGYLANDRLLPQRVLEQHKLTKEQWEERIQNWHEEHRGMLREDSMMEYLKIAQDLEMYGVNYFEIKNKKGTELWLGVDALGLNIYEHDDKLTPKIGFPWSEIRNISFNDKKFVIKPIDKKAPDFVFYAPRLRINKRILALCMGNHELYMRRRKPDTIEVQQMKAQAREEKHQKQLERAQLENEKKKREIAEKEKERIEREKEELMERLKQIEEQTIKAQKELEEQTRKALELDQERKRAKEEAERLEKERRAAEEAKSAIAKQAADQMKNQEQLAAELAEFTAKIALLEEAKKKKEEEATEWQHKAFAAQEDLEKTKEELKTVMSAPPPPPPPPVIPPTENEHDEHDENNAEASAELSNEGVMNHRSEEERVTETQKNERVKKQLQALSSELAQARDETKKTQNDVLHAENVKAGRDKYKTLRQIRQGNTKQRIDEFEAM
UniProt P35250, whole entry, looked up: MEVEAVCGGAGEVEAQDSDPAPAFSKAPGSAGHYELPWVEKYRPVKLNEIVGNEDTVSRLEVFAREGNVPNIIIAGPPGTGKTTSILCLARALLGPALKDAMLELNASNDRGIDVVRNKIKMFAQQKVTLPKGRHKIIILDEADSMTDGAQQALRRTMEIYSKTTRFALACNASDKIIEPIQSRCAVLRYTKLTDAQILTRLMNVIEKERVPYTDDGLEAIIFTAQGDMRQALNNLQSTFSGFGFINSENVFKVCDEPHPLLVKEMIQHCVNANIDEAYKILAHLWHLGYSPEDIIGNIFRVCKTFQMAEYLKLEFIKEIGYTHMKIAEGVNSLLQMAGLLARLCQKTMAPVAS
UniProt O43665: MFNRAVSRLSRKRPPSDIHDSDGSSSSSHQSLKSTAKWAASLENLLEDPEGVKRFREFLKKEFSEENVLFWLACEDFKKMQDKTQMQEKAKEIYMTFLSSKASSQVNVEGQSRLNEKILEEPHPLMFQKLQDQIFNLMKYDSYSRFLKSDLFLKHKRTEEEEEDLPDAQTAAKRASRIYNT
UniProt Q8TDP1: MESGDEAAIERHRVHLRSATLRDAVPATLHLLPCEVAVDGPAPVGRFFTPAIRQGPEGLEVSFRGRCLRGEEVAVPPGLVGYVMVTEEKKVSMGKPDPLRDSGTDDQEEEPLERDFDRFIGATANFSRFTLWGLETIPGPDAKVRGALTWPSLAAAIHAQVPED
UniProt O15541: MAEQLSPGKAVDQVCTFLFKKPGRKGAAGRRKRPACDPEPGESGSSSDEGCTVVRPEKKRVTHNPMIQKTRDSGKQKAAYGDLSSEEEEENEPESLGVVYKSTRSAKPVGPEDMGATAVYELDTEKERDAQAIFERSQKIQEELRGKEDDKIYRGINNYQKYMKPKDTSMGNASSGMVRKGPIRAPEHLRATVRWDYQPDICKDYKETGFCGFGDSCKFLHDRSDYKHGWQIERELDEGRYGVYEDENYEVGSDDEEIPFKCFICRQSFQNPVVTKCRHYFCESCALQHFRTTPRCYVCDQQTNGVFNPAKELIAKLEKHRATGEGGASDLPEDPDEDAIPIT
UniProt O75792: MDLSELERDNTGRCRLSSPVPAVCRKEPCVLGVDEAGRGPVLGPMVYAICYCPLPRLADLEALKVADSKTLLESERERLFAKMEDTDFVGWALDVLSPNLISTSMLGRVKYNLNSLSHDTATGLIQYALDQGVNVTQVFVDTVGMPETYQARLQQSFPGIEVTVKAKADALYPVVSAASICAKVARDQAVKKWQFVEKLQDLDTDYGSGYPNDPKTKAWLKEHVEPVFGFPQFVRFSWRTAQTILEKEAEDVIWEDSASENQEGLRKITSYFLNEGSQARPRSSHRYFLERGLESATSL
UniProt Q6NUK4: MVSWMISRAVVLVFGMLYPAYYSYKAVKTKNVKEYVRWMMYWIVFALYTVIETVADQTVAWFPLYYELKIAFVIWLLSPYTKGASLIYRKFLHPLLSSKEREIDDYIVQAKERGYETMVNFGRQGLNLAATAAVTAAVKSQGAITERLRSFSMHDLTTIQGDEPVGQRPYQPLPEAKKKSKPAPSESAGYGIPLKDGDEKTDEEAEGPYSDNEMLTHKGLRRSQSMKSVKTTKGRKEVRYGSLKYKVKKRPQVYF

Columns and labels:
Test in all cases: log2 fold change, soluble protein after heating vs DMSO (PISA); higher = thermal stabilisation; K562 cells, 10 uM, 30 min; active = over 0.2 and 3.5 SD of the protein, either way, in both replicates (recomputed)
IRAK-1-4 Inhibitor I = compound: C1COCCN1CCN2C3=CC=CC=C3N=C2NC(=O)C4=CC(=CC=C4)[N+](=O)[O-] [IRAK-1-4 Inhibitor I]
How it was run: (§1)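 K562 cells at 2×10^6 cells/mL were exposed to 10 μM compound for 30 min, then aliquots were heated for 3 min across 48°C-58°C, pooled, and extracted in PBS containing 0.5% NP-40 at 4°C. The supernatant after 21,000xg for 90 min was taken as soluble protein and measured by TMTpro 16plex LC-MS/MS with channel sums equalised. Thermal stability is reported relative to control samples, with values from duplicates. Fold changes are given on a log2 scale.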

ibrutinib = compound: C=CC(=O)N1CCC[C@@H](n2nc(-c3ccc(Oc4ccccc4)cc3)c3c(N)ncnc32)C1 [ibrutinib]
How it was run: as §1

[1] = compound: CC(=O)c1cnc2ccc(-c3cc(Cl)c(O)c(Cl)c3)nc2c1N[C@H]1CC[C@H](CN(C)C)CC1
How it was run: as §1

ralimetinib = compound: CC(C)(C)Cn1c(N)nc2ccc(-c3[nH]c(C(C)(C)C)nc3-c3ccc(F)cc3)nc21 [ralimetinib]
How it was run: as §1

[2] = compound: CC(C)(O)CC(=O)NCCn1ccc2ncnc(Nc3ccc(Oc4cccc(C(F)(F)F)c4)c(Cl)c3)c21
How it was run: as §1

[3] = compound: CC(C)C1=C2N=C(C=C(N2N=C1)NCC3=CC=CC=C3)NCCCCCCN
How it was run: as §1

[4] = compound: CC(C)C[C@@H](C=O)NC(=O)[C@H](CC(C)C)NC(=O)[C@H](CC(C)C)NC(=O)OCc1ccccc1
How it was run: as §1

pinometostat = compound: CC(C)N(C[C@H]1O[C@@H](n2cnc3c(N)ncnc32)[C@H](O)[C@@H]1O)[C@H]1C[C@@H](CCc2nc3cc(C(C)(C)C)ccc3[nH]2)C1 [pinometostat]
How it was run: as §1

[5] = compound: CC1=C(C2=C(C=C1)C(=O)C3=CC=CC=C3N2CCCN)C
How it was run: as §1

[6] = compound: CC1=C(C=C(C=C1)NC(=O)C2=CC(=CC=C2)C(C)(C)C#N)NC3=CC4=C(C=C3)N=CN(C4=O)C
How it was run: as §1

[7] = compound: CC1=C(C=C(C=C1)NC(=O)C2=CC(=CC=C2)N(C)C)NC(=O)C3=CC=C(C=C3)O
How it was run: as §1

[8] = compound: CC1=CC=C(C=C1)SC2=C3C=C(SC3=CN=C2)C(=O)N
How it was run: as §1

[9] = compound: CC1=NC(=CC=C1)C2=C(N=C(N2)C(C)(C)C)C3=CC4=NC=CN=C4C=C3
How it was run: as §1

Nexturastat A = compound: CCCCN(Cc1ccc(C(=O)NO)cc1)C(=O)Nc1ccccc1 [Nexturastat A]
How it was run: as §1

vemurafenib = compound: CCCS(=O)(=O)Nc1ccc(F)c(C(=O)c2c[nH]c3ncc(-c4ccc(Cl)cc4)cc23)c1F [vemurafenib]
How it was run: as §1

[10] = compound: CCCS(=O)(=O)Nc1ccc(F)c(C(=O)c2c[nH]c3ncc(Cl)cc23)c1F
How it was run: as §1

[11] = compound: CCCc1cc(C)[nH]c(=O)c1CNC(=O)c1cc(-c2ccnc(N3CCN(C)CC3)c2)cc2c1cnn2C(C)C
How it was run: as §1

givinostat = compound: CCN(CC)Cc1ccc2cc(COC(=O)Nc3ccc(C(=O)NO)cc3)ccc2c1 [givinostat]
How it was run: as §1

barasertib = compound: CCN(CCCOc1ccc2c(Nc3cc(CC(=O)Nc4cccc(F)c4)[nH]n3)ncnc2c1)CCOP(=O)(O)O [barasertib]
How it was run: as §1

[12] = compound: CC1=C(C(CC(=O)N1)C2=CC=C(C=C2)C(F)(F)F)C(=O)NC3=C(C=C4C(=C3)C=NN4)F
How it was run: as §1

| Target | log2 fold change (IRAK-1-4 Inhibitor I) | log2 fold change (ibrutinib) | log2 fold change [1] | log2 fold change (ralimetinib) | log2 fold change [2] | log2 fold change [3] | log2 fold change [4] | log2 fold change (pinometostat) | log2 fold change [5] | log2 fold change [6] | log2 fold change [7] | log2 fold change [8] | log2 fold change [9] | log2 fold change (Nexturastat A) | log2 fold change (vemurafenib) | log2 fold change [10] | log2 fold change [11] | log2 fold change (givinostat) | log2 fold change (barasertib) | log2 fold change [12] |
| --- | --- | --- | --- | --- | --- | --- | --- | --- | --- | --- | --- | --- | --- | --- | --- | --- | --- | --- | --- | --- |
| RIC8A isoform 3 (UniProt Q9NPQ8) | inactive: -0.073 | inactive: -0.051 | inactive: -0.193 | inactive: 0.06 | inactive: -0.052 | inactive: -0.354 | inactive: 0.066 | inactive: 0.166 | inactive: -0.132 | inactive: 0.074 | inactive: -0.051 | inactive: 0.024 | inactive: 0.023 | inactive: 0.198 | inactive: 0.028 | inactive: 0.085 | inactive: 0.111 | inactive: 0.028 | inactive: 0.073 |  |
| RHOT1 isoform 3 (UniProt Q8IXI2) | inactive: 0.018 | inactive: -0.017 | inactive: -0.021 | inactive: -0.025 | inactive: -0.02 | inactive: -0.194 | inactive: -0.03 | inactive: -0.017 | inactive: 0.022 | inactive: 0.035 | inactive: 0 | inactive: -0.012 | inactive: 0.031 | inactive: 0.029 | inactive: 0 | inactive: 0.025 | inactive: -0.013 | inactive: 0.021 | inactive: 0.033 | inactive: 0.029 |
| RCN1 (UniProt Q15293) | inactive: 0.032 | inactive: 0.002 | inactive: 0.023 | inactive: -0.045 | inactive: 0.038 | inactive: 0.01 | inactive: -0.017 | inactive: -0.032 | inactive: -0.034 | inactive: -0.032 | inactive: 0.025 | inactive: -0.011 | inactive: -0.038 | inactive: -0.003 | inactive: -0.022 | inactive: -0.006 | inactive: -0.064 | inactive: 0.025 | inactive: 0.019 | inactive: 0.046 |
| RDH14 (UniProt Q9HBH5) | inactive: 0.015 | inactive: -0.01 | inactive: -0.039 | inactive: 0.069 | inactive: 0.267 | inactive: -0.055 | inactive: -0.04 | inactive: -0.054 | inactive: 0.073 | inactive: 0.066 | inactive: -0.049 | inactive: -0.021 | inactive: 0.006 | inactive: 0.043 | inactive: 0.023 | inactive: 0.003 | inactive: 0.006 | inactive: -0.039 | inactive: -0.047 | inactive: -0.077 |
| RNASEH2B (UniProt Q5TBB1) | inactive: -0.027 | inactive: -0.039 | inactive: -0.196 | inactive: -0.013 | inactive: -0.217 | inactive: -0.248 | inactive: -0.034 | inactive: -0.015 | inactive: 0.163 | inactive: 0.05 | inactive: -0.091 | inactive: 0.041 | inactive: 0.137 | inactive: -0.12 | inactive: 0 | inactive: 0.075 | inactive: -0.056 | inactive: 0.16 | inactive: 0.136 | inactive: -0.075 |
| RFC4 (UniProt P35249) | inactive: 0.069 | inactive: 0.011 | inactive: 0.024 | inactive: -0.015 | inactive: -0.046 | inactive: -0.039 | inactive: 0 | inactive: -0.014 | inactive: 0 | inactive: 0.006 | inactive: 0.026 | inactive: 0.029 | inactive: 0.042 | inactive: -0.045 | inactive: -0.01 | inactive: 0.037 | inactive: -0.029 | inactive: -0.028 | inactive: 0.008 | inactive: 0.047 |
| RECQL (UniProt P46063) | inactive: 0.013 | inactive: 0.002 | inactive: -0.023 | inactive: -0.024 | inactive: -0.039 | inactive: -0.033 | inactive: -0.02 | inactive: -0.013 | active: 0.266 | inactive: 0.028 | inactive: -0.012 | inactive: 0.011 | inactive: 0.039 | inactive: -0.002 | inactive: -0.009 | inactive: 0.063 | inactive: -0.007 | inactive: 0.038 | inactive: -0.002 |  |
| RNF187 (UniProt Q5TA31) | inactive: 0.059 | inactive: 0.045 | inactive: -0.124 | inactive: 0.039 | inactive: 0.024 | inactive: 0.077 | active: 0.424 | inactive: -0.075 | inactive: -0.226 | inactive: -0.074 | inactive: -0.102 | inactive: 0.048 | inactive: -0.005 | inactive: 0.085 | inactive: -0.106 | inactive: 0.039 | inactive: 0 | inactive: 0.036 | inactive: 0.041 |  |
| RFK (UniProt Q969G6) | inactive: 0.02 | inactive: -0.012 | inactive: 0.112 | inactive: -0.045 | inactive: 0.031 | inactive: 0.078 | inactive: -0.06 | inactive: -0.064 | inactive: 0.039 | inactive: -0.013 | inactive: -0.042 | inactive: 0.031 | inactive: 0.096 | inactive: -0.093 | inactive: 0.057 | inactive: 0.039 | inactive: -0.076 | inactive: -0.036 | inactive: -0.021 | inactive: -0.006 |
| RDX (UniProt P35241) | inactive: 0.001 | inactive: -0.018 | inactive: 0.024 | inactive: 0.023 | inactive: -0.076 | inactive: 0.078 | inactive: -0.035 | inactive: -0.029 | inactive: 0.039 | inactive: 0.002 | inactive: -0.002 | inactive: 0.03 | inactive: 0.052 | inactive: -0.091 | inactive: -0.017 | inactive: 0.011 | inactive: 0.02 | inactive: -0.025 | inactive: -0.001 | inactive: -0.008 |
| RFC2 (UniProt P35250) | inactive: 0.02 | inactive: 0.001 | inactive: -0.018 | inactive: -0.026 | inactive: -0.025 | inactive: -0.022 | inactive: 0 | inactive: 0.002 | inactive: 0.003 | inactive: 0.001 | inactive: 0.016 | inactive: 0.017 | inactive: 0.04 | inactive: -0.1 | inactive: -0.007 | inactive: 0.033 | inactive: -0.007 | inactive: -0.016 | inactive: 0.01 | inactive: 0.027 |
| RGS10 (UniProt O43665) | inactive: 0.046 | inactive: 0.047 | inactive: -0.024 | inactive: 0.026 | inactive: -0.025 | inactive: -0.057 | inactive: -0.004 | inactive: 0.087 | inactive: 0.015 | inactive: -0.012 | inactive: -0.02 | inactive: -0.02 | inactive: -0.041 | inactive: -0.012 | inactive: 0.048 | inactive: 0.034 | inactive: 0.02 | inactive: 0.026 | inactive: 0.016 |  |
| RNASEH2C (UniProt Q8TDP1) | inactive: 0.009 | inactive: 0.06 | inactive: -0.092 | inactive: 0.013 | inactive: -0.147 | inactive: -0.244 | inactive: 0.005 | inactive: -0.062 | inactive: 0.134 | inactive: -0.013 | inactive: -0.087 | inactive: -0.01 | inactive: 0.016 | inactive: -0.003 | inactive: 0.077 | inactive: 0.08 | inactive: 0.073 | inactive: 0.003 | inactive: 0.089 | inactive: -0.041 |
| RNF113A (UniProt O15541) | inactive: 0.031 | inactive: 0.029 | inactive: -0.009 | inactive: -0.079 | inactive: 0.024 | inactive: 0.072 | inactive: 0.027 | inactive: 0.001 | inactive: 0 | inactive: -0.054 | inactive: 0.015 | inactive: 0.064 | inactive: -0.015 | inactive: -0.068 | inactive: -0.058 | inactive: -0.016 | inactive: -0.018 | inactive: -0.004 | inactive: -0.015 | inactive: 0.029 |
| RNASEH2A (UniProt O75792) | inactive: 0 | inactive: 0.008 | inactive: -0.07 | inactive: -0.08 | inactive: -0.029 | inactive: -0.122 | inactive: 0.074 | inactive: -0.003 | inactive: 0.042 | inactive: -0.023 | inactive: -0.018 | inactive: 0.022 | inactive: 0.046 | inactive: 0.142 | inactive: -0.102 | inactive: -0.024 | inactive: -0.063 | inactive: 0.046 | inactive: 0.039 |  |
| REEP3 (UniProt Q6NUK4) | inactive: -0.097 | inactive: 0.015 | inactive: -0.187 | inactive: -0.054 | inactive: 0.032 | inactive: 0.029 | inactive: 0.049 | inactive: 0.122 | inactive: 0.078 | inactive: -0.077 | inactive: 0.053 | inactive: -0.049 | inactive: 0.022 | inactive: 0.143 | inactive: -0.045 | inactive: -0.164 | inactive: -0.218 | inactive: 0.054 | inactive: 0.017 | inactive: 0.015 |

Looked up above:
RNF187 (UniProt Q5TA31) – log2 fold change (Nexturastat A): inactive: 0.085
RFK (UniProt Q969G6) – log2 fold change (pinometostat): inactive: -0.064
